Data: PubChem BioAssay AID504834 (National Center for Advancing Translational Sciences (NCATS), 2011)
About 22,000 (6.9%) of roughly 320,000 compounds were called active. This list was built around the results that the source calls inconclusive (neither active nor inactive); the mix of calls is not that of the screen. Calls follow the shape of the dose curve; as a rule, active = well fitted inhibition curve with a large enough effect; inconclusive = small, poorly fitted or top-dose-only effect, or another doubt; inactive = no such curve, though single readings can be large or run the other way. Potencies of inconclusive entries are doubtful fits and often do not repeat.

assay: Primary qHTS for delayed death inhibitors of the malarial parasite plastid, 96 hour incubation; settings: P. falciparum luciferase reporter growth; series mostly up to 28.7 µM; activity change, negative = inhibition: at the top concentration
Summary of the method: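 Delayed-death screen, second-generation endpoint: infected erythrocytes, 2% hematocrit, 0.05% parasitemia final; 96 hours at 37 C, 5% CO2; luciferase detection reagent; luminescence decrease equals reduced growth.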
% is scaled to controls: 0 for no effect and ±100 for the full control effect; potency is read from the fitted curve at half-maximal effect.

SMILES | Potency | activity change, negative = inhibition
O=C1/C(=C/c2ccccc2)Oc2cc(OC(=O)N3CCOCC3)ccc21 | inconclusive: 18.5 µM [inhibitor, partial curve, poor fit] | 
COc1ccc(NS(=O)(=O)c2cccc3nonc23)c(OC)c1 | inconclusive: 11.7 µM [inhibitor, single point] | 
CCc1ccc(N=C2N=C(N)c3ccccc32)cc1 |  | inactive: 78.1%
CC(C)c1cc(CNC(=O)C2CCC(=O)N(CCc3ccc(Cl)cc3)C2)on1 (centres undefined) |  | inactive: 33.2%
COc1ccc(CN2CCC(=O)N([C@H](CO)c3ccccc3)CC2)cc1 | inconclusive: 18.5 µM [inhibitor, single point] | 
Cc1ccc(NC(=O)CN(C)C(=O)c2ccc(OCc3c(C)noc3C)cc2)cc1 | inconclusive: 13.1 µM [inhibitor, partial curve, poor fit] | 
Cc1cc(C)cc(NC(=O)N2CCN(C/C=C/c3ccccc3)CC2)c1 | active: 2.94 µM | 
Cc1nnc(-c2cccc(Br)c2)c2cn(-c3ccccc3Cl)nc12 | inconclusive: 13.1 µM [inhibitor, partial curve, poor fit] | 
CCCOc1ccc(C(=O)Nc2ccc(C)cc2[N+](=O)[O-])cc1 |  | inactive: 0.741%
O=C(CSc1nnnn1C1CC1)Nc1ccc(S(=O)(=O)N2CCOCC2)cc1 | inconclusive: 10.4 µM [inhibitor, single point] | 
Cn1c(=O)[nH]c(=O)c2c1nc(SCCO)n2CC(O)COc1ccccc1 (centres undefined) | inconclusive: 14.7 µM [inhibitor, single point] | 
O=C(Nc1nc(-c2ccc(F)c(F)c2)cs1)c1ccc(OCC2CCCO2)cc1 (centres undefined) |  | inactive: -23.9%
CCCCC(CC)CN1C(=O)/C(=C/c2ccncc2)SC1=S (centres undefined) | inconclusive: 10.4 µM [inhibitor, partial curve, poor fit] | 
Cc1nn(C)c(C(=O)NNC(=S)NC2CCCCC2)c1Br | active: 5.22 µM | 
CC(=O)c1ccc(N2CCN(C(=S)Nc3ccccc3C(F)(F)F)CC2)cc1 | inconclusive: 10.4 µM [inhibitor, partial curve] | 
Cc1ccc(N(CC(=O)NCc2ccc(Cl)cc2)S(C)(=O)=O)cc1 |  | inactive: 0%
CC1(C)Cc2c(sc3c2c(=N)n(Cc2ccco2)c(=O)n3CC(=O)Nc2ccc(Cl)cc2)CO1 | inconclusive: 9.28 µM [inhibitor, partial curve] | 
Cn1c(N)c(C(=O)COC(=O)[C@@H]2CCCN2S(=O)(=O)c2ccc(Cl)cc2)c(=O)n(C)c1=O |  | inactive: -13.6%
O=[N+]([O-])c1ccc(Sc2nnnn2-c2ccccc2)nc1 | inconclusive: 18.5 µM [inhibitor, single point] | 
COc1cc(OC)cc(C(=O)Nc2cccc3nc(C)ccc23)c1 | inconclusive: 4.15 µM [inhibitor, single point] | 
CC(C)OC(=O)c1cccnc1SCC(=O)N(C)c1ccccc1 | inconclusive: 14.7 µM [inhibitor, partial curve] | 
COc1ccc(COn2nnc3ccc(S(=O)(=O)N4CCOCC4)cc32)cc1F | inconclusive: 0.0037 µM [inhibitor, full curve, poor fit] | 

SMILES | Potency | activity change, negative = inhibition
CCOC(=O)C1CCCCN1Cc1ccc(F)c(Br)c1 (centres undefined) | inconclusive: 7.38 µM [inhibitor, partial curve] | 
O=C(O)c1cccc(-c2ccc(/C=N/n3cnnc3)o2)c1 |  | inactive: 95.3%
O=C(COC(=O)c1ccc(Br)o1)c1ccc(S(=O)(=O)N2CCCCC2)cc1 | inconclusive: 11.7 µM [inhibitor, single point] | 
Cc1ccc(C)c(NC(=O)C(Sc2cccc[n+]2[O-])c2ccccc2)c1 (centres undefined) | inconclusive: 8.28 µM [inhibitor, partial curve, poor fit] | 
Cc1sc2ncnc(N3CCC(C(=O)N(C)CC(=O)Nc4ccc(Cl)c(C(F)(F)F)c4)CC3)c2c1C | inconclusive: 10.4 µM [inhibitor, single point] | 
CCOC(=O)C(=Cc1ccc(-n2ccnc2)cc1)C(=O)OCC | inconclusive: 1.17 µM [inhibitor, full curve, poor fit] | 
COc1ccccc1OCc1ccc(C(=O)NCc2cccnc2)o1 |  | inactive: 0%
N#C/C(=C(/O)CSc1n[nH]c(N)n1)c1nc2ccccc2[nH]1 |  | inactive: 82.2%
O=C(Nc1cccc(S(=O)(=O)NC2=NCCC2)c1)c1cc(-c2ccco2)nc2ccccc12 | inconclusive: 11.7 µM [inhibitor, partial curve, poor fit] | 
O=C(O)C1CCN(Cc2cccnc2)CC1 |  | inactive: 17.6%
S=C(NCc1cccs1)Nc1cc(Cl)cc(Cl)c1 | inconclusive: 13.1 µM [inhibitor, single point] | 
COc1ccc2[nH]cc(/C=C/c3cc[n+](C)cc3)c2c1 | active: 0.465 µM | 
CCOC(=O)Cn1c2c(c(=N)c3c1CCC3)CCC2 |  | inactive: -0.21%
COc1ccc(Nc2ncnc3sc(-c4ccccc4)cc23)cc1OC | inconclusive: 10.4 µM [inhibitor, single point] | 
Cc1oc2c(c(C)cc3oc(=O)c(CC(=O)NCCCN4CCCC4=O)c(C)c32)c1C | inconclusive: 18.5 µM [inhibitor, single point] | 
C/C(=N\NC(=O)COc1ccccc1-c1ccccc1)c1ccc(O)cc1O | inconclusive: 0.522 µM [inhibitor, full curve, poor fit] | 
CCOC(=O)C(C)n1cnc2c(nnn2Cc2ccc(C)cc2)c1=O (centres undefined) |  | inactive: 5.01%
CCCCN(C)CCNC(=O)c1nn(-c2ccc(OC)cc2)c(=O)c2c1c1ccccc1n2C | active: 2.62 µM | 
O=c1[nH]c(N2CCN(Cc3ccc4c(c3)OCO4)CC2)nc2c1CCCC2 | active: 7.38 µM | 
COc1ccc(-c2nsc3c(N4CCCCC4)ncnc23)cc1 | inconclusive: 7.38 µM [inhibitor, partial curve, poor fit] | 
Cc1cc(NC(=O)Cn2nc(C(F)(F)F)c3c2CCCC3)no1 | inconclusive: 18.5 µM [inhibitor, single point] | 
CCOc1ccc(N2CC(C(=O)Nc3cccc(S(=O)(=O)N4CCCC4)c3)CC2=O)cc1 (centres undefined) | inconclusive: 13.1 µM [inhibitor, single point] | 

Ordered by SMILES length (ascending): part of the list above.
SMILES | Potency | activity change, negative = inhibition
CCOC(=O)C1CCCCN1Cc1ccc(F)c(Br)c1 (centres undefined) | inconclusive: 7.38 µM [inhibitor, partial curve] | 
COc1ccc(-c2nsc3c(N4CCCCC4)ncnc23)cc1 | inconclusive: 7.38 µM [inhibitor, partial curve, poor fit] | 
O=C(O)c1cccc(-c2ccc(/C=N/n3cnnc3)o2)c1 |  | inactive: 95.3%
